Among the data in publication PMC12339706 are binding values, retold here.

These are yes or no findings as the source states them, for the method shown. Binding seen in cells or lysates may run through a third protein. Some entries that bind do so weakly or less than the wild type. Sequences can lack the tags named with a protein.

This test has as its target T1, Flag-TRIM59 (UniProt Q8IWR1).
T1 sequence: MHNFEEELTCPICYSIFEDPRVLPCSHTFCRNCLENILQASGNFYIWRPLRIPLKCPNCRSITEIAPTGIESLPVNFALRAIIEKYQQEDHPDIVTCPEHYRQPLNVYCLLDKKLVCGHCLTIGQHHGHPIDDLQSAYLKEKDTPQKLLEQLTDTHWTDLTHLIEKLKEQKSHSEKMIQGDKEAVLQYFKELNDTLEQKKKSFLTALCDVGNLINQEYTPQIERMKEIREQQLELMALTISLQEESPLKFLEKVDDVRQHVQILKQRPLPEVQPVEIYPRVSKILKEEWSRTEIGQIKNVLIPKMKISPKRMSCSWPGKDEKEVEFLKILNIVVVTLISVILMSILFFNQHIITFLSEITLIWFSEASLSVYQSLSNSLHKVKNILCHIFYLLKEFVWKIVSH
The experiment in a line: co-IP; HEK-293T cells transfected with Flag-TRIM59 and Myc-ACAT1, MG132 20 uM for 6 h; anti-Flag and anti-Myc immunoprecipitation (5 mg protein, 5 ug antibody or IgG, 4 °C overnight), protein A/G magnetic beads, Western blot. Background: In western blotting, separated proteins are transferred to a membrane and probed.

B1: Myc-ACAT1 (enzyme, UniProt P24752 34-427)
chain: VSKPTLKEVVIVSATRTPIGSFLGSLSLLPATKLGSIAIQGAIEKAGIPKEEVKEAYMGNVLQGGEGQAPTRQAVLGAGLPISTPCTTINKVCASGMKAIMMASQSLMCGHQDVMVAGGMESMSNVPYVMNRGSTPYGGVKLEDLIVKDGLTDVYNKIHMGSCAENTAKKLNIARNEQDAYAINSYTRSKAAWEAGKFGNEVIPVTVTVKGQPDVVVKEDEEYKRVDFSKVPKLKTVFQKENGTVTAANASTLNDGAAALVLMTADAAKRLNVTPLARIVAFADAAVEPIDFPIAPVYAASMVLKDVGLKKEDIAMWEVNEAFSLVVLANIKMLEIDPQKVNINGGAVSLGHPIGMSGARIVGHLTHALKQGEYGLASICNGGGGASAMLIQKL
For the molecule B1, the binding entry is “binds”.
